Test results: patent publication US20170298100A1, “ANTI-VIRAL PEPTIDES” (Cascadia Life Sciences LLC, priority 2014, published 2017)
Not every detail of the peptide structures is certain; ends, links or a residue may be inferred.

Experiments:
[1] = test system: influenza H3N2/Wisconsin/67/2005; test: plaque assay of influenza H3N2 replication in MDCK cells; format: cell-based, influenza virus; details: for plaque area: compared to control untreated cells; for visibility of plaques: monolayer not healthy as a result of drug treatment
[2] = test system: herpes simplex virus type 1 strain KOS; test: plaque inhibition assay of HSV1 strain KOS replication in Vero cells; format: cell-based

Row | Substance | effect on plaque area, comparison between the two peptides ([1]; 18.8 μM concentration) | plaque area ([1]; 18.8 μM concentration) | number of H3N2 plaques formed ([1]; 59.4 μM) | plaque size (area) ([1]; 59.4 μM) | visibility of plaques ([1]; 188 μM) | number of H3N2 plaques formed ([1]; 74.0 μM) | plaque size (area) ([1]; 74.0 μM) | visibility of plaques ([1]; 235 μM) | plaque diameter ([2]; 188 ug/ml dilution, relative to untreated plaques) | plaque number ([2]; highest concentration, compared to untreated control cells) | plaque size ([2]; lower concentrations) | reduction in plaque number ([2]; lower concentrations)
1 | Ac-ADVDVSAVQAKLGALELNQRDAAAETELRV-NH2 [CLS2A] | greater effect compared to CLS2G | reduced in area | slight reduction in the number | reduced in area | not visible | – | – | – | – | – | – | –
2 | Ac-GDTVGLIDEQNEASKTNGLGAAEAF-NH2 [CLS2G] | – | reduced in area | – | – | – | slight reduction in the number | reduced in area | not visible | – | – | – | –
3 | Ac-RQYSVTDALEDVSTSPQSTEEVVQSFLISQ-NH2 [CLS1S] | – | – | – | – | – | – | – | – | approximately half the diameter of untreated plaques | reduced in number | wild-type size | no measurable reduction in plaque number
